Chains of the proteins cited; added tags and fusions are not shown. Lines headed by an entry give the natural chain unless they say otherwise; changes in a name come on top. Residues count along the entry.
UniProt Q93878: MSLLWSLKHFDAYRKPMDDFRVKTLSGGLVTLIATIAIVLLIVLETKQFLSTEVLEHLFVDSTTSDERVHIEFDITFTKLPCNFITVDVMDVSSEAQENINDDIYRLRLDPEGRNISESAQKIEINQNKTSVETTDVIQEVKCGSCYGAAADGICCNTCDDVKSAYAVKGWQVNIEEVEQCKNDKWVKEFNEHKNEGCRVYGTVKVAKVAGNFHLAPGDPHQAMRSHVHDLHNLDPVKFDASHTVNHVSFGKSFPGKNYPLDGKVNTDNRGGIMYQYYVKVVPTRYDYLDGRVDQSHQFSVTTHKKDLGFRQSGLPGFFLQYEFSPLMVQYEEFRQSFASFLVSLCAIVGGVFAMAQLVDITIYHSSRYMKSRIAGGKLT
UniProt G5EEW1: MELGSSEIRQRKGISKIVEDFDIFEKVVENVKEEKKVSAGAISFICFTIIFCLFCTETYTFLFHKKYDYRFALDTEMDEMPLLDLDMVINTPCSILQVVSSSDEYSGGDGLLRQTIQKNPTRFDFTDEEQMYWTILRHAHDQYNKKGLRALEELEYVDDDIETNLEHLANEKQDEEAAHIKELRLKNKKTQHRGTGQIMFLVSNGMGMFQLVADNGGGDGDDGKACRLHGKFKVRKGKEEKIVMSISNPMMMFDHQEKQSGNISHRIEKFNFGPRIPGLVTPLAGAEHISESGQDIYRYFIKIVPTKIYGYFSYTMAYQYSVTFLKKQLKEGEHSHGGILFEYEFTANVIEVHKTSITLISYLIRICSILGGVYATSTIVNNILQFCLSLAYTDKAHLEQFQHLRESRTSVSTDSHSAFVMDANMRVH
UniProt P20163, residues 18-657: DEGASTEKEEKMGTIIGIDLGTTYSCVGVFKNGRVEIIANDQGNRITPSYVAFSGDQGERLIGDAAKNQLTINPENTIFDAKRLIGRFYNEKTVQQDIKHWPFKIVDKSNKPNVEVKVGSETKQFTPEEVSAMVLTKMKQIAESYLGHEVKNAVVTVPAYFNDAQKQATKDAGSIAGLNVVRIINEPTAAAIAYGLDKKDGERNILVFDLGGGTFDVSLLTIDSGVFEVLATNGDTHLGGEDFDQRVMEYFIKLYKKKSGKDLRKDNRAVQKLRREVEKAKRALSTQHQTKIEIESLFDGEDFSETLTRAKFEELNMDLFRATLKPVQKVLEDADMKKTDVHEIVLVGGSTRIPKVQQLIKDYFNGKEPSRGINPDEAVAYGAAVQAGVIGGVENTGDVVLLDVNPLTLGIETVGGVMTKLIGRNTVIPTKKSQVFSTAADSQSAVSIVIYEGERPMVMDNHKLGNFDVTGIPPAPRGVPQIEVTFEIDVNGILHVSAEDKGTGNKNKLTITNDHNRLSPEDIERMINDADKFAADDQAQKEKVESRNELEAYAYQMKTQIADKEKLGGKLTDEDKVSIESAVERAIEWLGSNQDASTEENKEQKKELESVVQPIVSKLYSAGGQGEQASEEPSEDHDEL

According to PMC13568704:

Tests used:
[1] = target: GFP::ERGI-3 (endogenous knock-in, allele xdKi81) (C. elegans) (UniProt Q93878); assay: affinity purification with mass spectrometry; lysates of GFP knock-in worms (xdKi80, xdKi81; GFP-only worms as control) in 50 mM Tris-Cl pH 8.0, 150 mM NaCl, 0.5% sodium deoxycholate, 1% Triton X-100; anti-GFP polyclonal antibody overnight, protein A agarose 4 h at 4°C; in-gel digestion, TripleTOF 5600
[2] = target: GFP::ERGI-2 (endogenous knock-in, allele xdKi80) (C. elegans) (UniProt G5EEW1); assay: as above

binding [1]: binds
binding [2]: binds
Substance: HSP-4/BiP (endogenous, C. elegans) (from UniProt P20163 18-657)

These are yes or no findings as the source states them, for the method shown. In cells and extracts the contact can be indirect. Here binding means that the protein was enriched with, or labelled near, the bait; the list need not be complete.
